In publication PMC4743000 one finds binding data, which are given here for one molecule.

These are yes or no findings as the source states them, for the method shown. Binding seen in cells or lysates may run through a third protein. Binding calls can cover weak binding; strength is not graded here.

The target in this assay is CDC-48 (C. elegans (endogenous in whole-worm lysate)). Put plainly: co-IP; C. elegans-specific antibodies crosslinked (BS3) to Dynabeads Protein A, incubated with wt whole-worm lysate (1 mg total protein) 30 min at room temperature; wash 50 mM Tris pH 7.2, 1 mM EDTA, 150 mM NaCl, 10% glycerol; western blot. Background: In western blotting, separated proteins are transferred to a membrane and probed.

B1: UBXN-3 (ubiquitin regulatory X (UBX) domain-containing protein in nematodes 3) (protein, UniProt H2L056 1-613)
chain: MDLTASLEDDQREKLRQYTEFTHQQDYEVAIGTLASLNWNLEQAIEAHLMQEDKNDDEDPEILETIPAAASGRNAGASSSSRFEPEVINIEDDEMPATRGRRRGRAVTPDETTTVDNQVKRLRIDDGSSSSSNGAATHHRGAAIPRQKRGQATEPTPSSSGSSSASFSSRRGTRANPVPPPNQEPAHPESARQNGGILASRHNNHNNQQNNHHHHHQRIPINPRRVDVFNVDSDEDDDSMAIAYEDDDDGVHEVHHSEVVARGSGPPNGRIPMIPDGFSSVSDALRNFVAIFSDRFCSTPQTQAFMPPFYTEPLPAAVKEAFDHPNSEHRRPLLFYINHDRSIAANIFASQVLCSETVSTLIRHQYVLFPWDITSDSNLMLFLEYLQAANMGDVRTIIQRLAMSKIESFPLMAIVVKERNSYRLVDYCRGTDTSDQVMEKLLSGVSEYSDIRMNEQSERREREEREAIRNQQEAEYKASLAADKARMEAKQQEIEEQRLEEERKLREEEEECVRRQTVASTVPEEPPASAPLAEIINVKFRLPEGGQDMRRFRRLESIQTLINYLSSKGYSPDKFKYFNSDFPKKEITRHFDLSHNFADTKWPAREQIFVEEI
Take B1: the binding entry is “binds”.
